{"source": "PubChem BioAssay AID1259308 (NCATS, 2017)", "screen": "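Candidate targets for better recombinant protein yield in mammalian cells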 (primary screen)", "cell system": "human HEK293 embryonic kidney cells stably expressing firefly luciferase (HEK-CMV-Luc2-Hygro)", "reagent": "single siRNA against human genes, 0.8 pmol siRNA per well", "duration": "72 h", "read-out": "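Reporter luminescence and viable-cell signal on separate replicate plates, given as percent of non-targeting control and median/MAD z-scores, plus per-cell luciferase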", "direction": "total luciferase, z-score and total luciferase, % of control: higher = more reporter protein produced", "call rule": "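An siRNA counts as active if its total luciferase robust z-score exceeds 3; genes with two or more such siRNAs out of three were retested with fresh siRNAs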", "meaning of the calls": "active = raised luciferase; inactive = no rise", "note": "This is one part, drawn at random, of about 59,000 reagents tested. In the full data, about 1,510 (2.6%) were called active. 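Calls use total luciferase alone and ignore viability, so some active siRNAs may act by altering cell number.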 Reagents against one gene are numbered here. Further read-outs or replicates are left out here."}
The opening 3 records as a preview:
{"Target gene":"HAVCR1","siRNA no.":1,"total luciferase, z-score":0.482,"total luciferase, % of control":91.5,"activity call":"inactive"}
{"Target gene":"HAVCR1","siRNA no.":2,"total luciferase, z-score":0.189,"total luciferase, % of control":85.6,"activity call":"inactive"}
{"Target gene":"HAVCR1","siRNA no.":3,"total luciferase, z-score":0.259,"total luciferase, % of control":87,"activity call":"inactive"}

The listing, from the start:
{"Target gene":"HAVCR1","siRNA no.":1,"total luciferase, z-score":0.482,"total luciferase, % of control":91.5,"activity call":"inactive"}
{"Target gene":"HAVCR1","siRNA no.":2,"total luciferase, z-score":0.189,"total luciferase, % of control":85.6,"activity call":"inactive"}
{"Target gene":"HAVCR1","siRNA no.":3,"total luciferase, z-score":0.259,"total luciferase, % of control":87,"activity call":"inactive"}
{"Target gene":"LTB","siRNA no.":1,"total luciferase, z-score":2.01,"total luciferase, % of control":122,"activity call":"inactive"}
{"Target gene":"LTB","siRNA no.":2,"total luciferase, z-score":0.791,"total luciferase, % of control":97.6,"activity call":"inactive"}
{"Target gene":"LTB","siRNA no.":3,"total luciferase, z-score":-0.432,"total luciferase, % of control":73.3,"activity call":"inactive"}
{"Target gene":"CPB1","siRNA no.":1,"total luciferase, z-score":-0.109,"total luciferase, % of control":79.7,"activity call":"inactive"}
{"Target gene":"CPB1","siRNA no.":2,"total luciferase, z-score":0.251,"total luciferase, % of control":86.9,"activity call":"inactive"}
{"Target gene":"CPB1","siRNA no.":3,"total luciferase, z-score":-0.122,"total luciferase, % of control":79.5,"activity call":"inactive"}
{"Target gene":"NOB1","siRNA no.":1,"total luciferase, z-score":-1.62,"total luciferase, % of control":49.7,"activity call":"inactive"}
{"Target gene":"NOB1","siRNA no.":2,"total luciferase, z-score":-2.04,"total luciferase, % of control":41.3,"activity call":"inactive"}
{"Target gene":"NOB1","siRNA no.":3,"total luciferase, z-score":2.11,"total luciferase, % of control":124,"activity call":"inactive"}
{"Target gene":"CCDC89","siRNA no.":1,"total luciferase, z-score":1.62,"total luciferase, % of control":114,"activity call":"inactive"}
{"Target gene":"CCDC89","siRNA no.":2,"total luciferase, z-score":0.369,"total luciferase, % of control":89.2,"activity call":"inactive"}
{"Target gene":"CCDC89","siRNA no.":3,"total luciferase, z-score":-0.807,"total luciferase, % of control":65.8,"activity call":"inactive"}
{"Target gene":"RPS10P9","siRNA no.":1,"total luciferase, z-score":-0.897,"total luciferase, % of control":64,"activity call":"inactive"}
{"Target gene":"RPS10P9","siRNA no.":2,"total luciferase, z-score":1.06,"total luciferase, % of control":103,"activity call":"inactive"}
{"Target gene":"RPS10P9","siRNA no.":3,"total luciferase, z-score":1.89,"total luciferase, % of control":119,"activity call":"inactive"}
{"Target gene":"OR4D5","siRNA no.":1,"total luciferase, z-score":-0.195,"total luciferase, % of control":78,"activity call":"inactive"}
{"Target gene":"OR4D5","siRNA no.":2,"total luciferase, z-score":-0.559,"total luciferase, % of control":70.8,"activity call":"inactive"}
{"Target gene":"OR4D5","siRNA no.":3,"total luciferase, z-score":0.298,"total luciferase, % of control":87.8,"activity call":"inactive"}
{"Target gene":"H3-3B","siRNA no.":1,"total luciferase, z-score":0.287,"total luciferase, % of control":87.6,"activity call":"inactive"}
{"Target gene":"H3-3B","siRNA no.":2,"total luciferase, z-score":-0.0795,"total luciferase, % of control":80.3,"activity call":"inactive"}
{"Target gene":"H3-3B","siRNA no.":3,"total luciferase, z-score":-0.642,"total luciferase, % of control":69.1,"activity call":"inactive"}
{"Target gene":"LOC100288914","siRNA no.":1,"total luciferase, z-score":-0.0741,"total luciferase, % of control":80.4,"activity call":"inactive"}
{"Target gene":"LOC100288914","siRNA no.":2,"total luciferase, z-score":-0.0897,"total luciferase, % of control":80.1,"activity call":"inactive"}
{"Target gene":"LOC100288914","siRNA no.":3,"total luciferase, z-score":-1.8,"total luciferase, % of control":46,"activity call":"inactive"}
{"Target gene":"NUAK2","siRNA no.":1,"total luciferase, z-score":1.27,"total luciferase, % of control":107,"activity call":"inactive"}
{"Target gene":"NUAK2","siRNA no.":2,"total luciferase, z-score":-0.309,"total luciferase, % of control":75.7,"activity call":"inactive"}
{"Target gene":"NUAK2","siRNA no.":3,"total luciferase, z-score":1.76,"total luciferase, % of control":117,"activity call":"inactive"}
{"Target gene":"MAGEA9","siRNA no.":1,"total luciferase, z-score":1.18,"total luciferase, % of control":105,"activity call":"inactive"}
{"Target gene":"MAGEA9","siRNA no.":2,"total luciferase, z-score":-0.425,"total luciferase, % of control":73.4,"activity call":"inactive"}
{"Target gene":"MAGEA9","siRNA no.":3,"total luciferase, z-score":2.87,"total luciferase, % of control":139,"activity call":"inactive"}
